Test results: PubChem BioAssay AID2417 (National Center for Advancing Translational Sciences (NCATS), 2010)
Hit rate of the full screen: of about 140,000 compounds, about 4,300 (3.1%) were called active. Inconclusive results, whose numbers are uncertain, are shown with a selection of clear calls.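 How the source made its calls: active means readout at or below -70, meaning at least 70% loss of cells showing the perinucleolar compartment, a nuclear body marking cancer cells; inconclusive means readout between -30 and a set limit; inactive means the rest.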

experiment: High Content Assay for Compounds that inhibit the Assembly of the Perinucleolar Compartment; conditions: PC3M PTB-GFP, PNC prevalence imaging, 16 h; at 10 µM; stronger effect = lower value;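 further: plate controls were DMSO wells for no effect and camptothecin positive control wells for full effect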
Procedure, shortened: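 Compounds are pinned in duplicate onto adhered PC3M cells stably expressing GFP-tagged PTB and incubated 16 h at 37 C. Cells are then fixed, nuclei stained with Hoechst, and PNC-positive cells counted.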

Row | SMILES | activity change (PNC), negative = inhibition
1 | COCCn1c(C)cc2c(c1=O)C(c1ccco1)C(C#N)=C(N)O2 (configuration not stated) | inconclusive: -55.7%
2 | CCn1c(CNC(=O)Cc2ccc(OC)cc2)nnc1SCC(=O)c1ccc(Br)cc1 | inactive: -4.76%
3 | CC(C)C(=O)Nc1cccc(NC(=O)c2ccc(Cl)cc2Cl)c1 | inconclusive: -57.9%
4 | O=C(OC(C(=O)NC1CCCCC1)c1ccccc1)c1ccco1 (configuration not stated) | inconclusive: -31.5%
5 | C=CCn1c(CCNC(=O)c2cccs2)n[nH]c1=S | inconclusive: -37.6%
6 | CC(=O)Nc1ccc(SCC(=O)c2cc(C)n(CC(F)(F)F)c2C)cc1 | inactive: 34.4%
7 | CCN(CC)CCNCc1ccc(OCc2ccc(Cl)nc2)c(OC)c1 | inconclusive: -71.2%
8 | O=C(CCn1c(=O)[nH]c2ccsc2c1=O)N1CCc2ccccc2C1 | inconclusive: -47%
9 | NC(=O)c1cccnc1Sc1ccc(Cl)cc1 | inconclusive: -32.4%
10 | CC1=C([N+](=O)[O-])C(c2cccc(Br)c2)C2=C(N1)c1ccccc1C2=O (configuration not stated) | active: -82.8%
11 | CCNS(=O)(=O)c1cc(OC)c(Cl)cc1OC | inactive: -23.6%
12 | CCc1ccc2c(c1)C(c1cccs1)=NNC(c1cccnc1)=N2 | inconclusive: -37.4%
13 | COc1ccc(C(=O)OCCNC(=O)c2ccncc2)cc1OC | inconclusive: -37.1%
14 | Cc1cc(O)cc(O)c1C(=O)Cc1cscn1 | inconclusive: -55.6%
15 | COC(=O)C1=C(C)N(Cc2ccc(C)cc2)C(=O)/C1=C\c1cc(OC)c(OC)c(OC)c1 | inactive: 25.5%
16 | CCCc1nn2c(=O)cc(O)nc2s1 | inconclusive: -61.7%
17 | Cn1c(=O)c(C(=O)CN2CCc3ccccc32)c(N)n(Cc2ccccc2)c1=O | inconclusive: -33.6%
18 | COc1ccc(CC(=O)Nc2ccc(C(=O)Nc3ccccc3C(=O)O)cc2)cc1OC | inconclusive: -30.8%
19 | O=C(C1CC1)N1CCc2cc(Br)cc(S(=O)(=O)NCc3ccc4c(c3)OCO4)c21 | inactive: 3.78%
20 | CC(C)(C)C(C(Oc1ccc(Cl)cc1)n1cncn1)n1nnnc1C(c1cccc(Cl)c1)N1CCCCC1 (configuration not stated) | inactive: 28.8%
21 | Cc1nc(Cl)c(C(=O)NC(=O)Nc2cccc(C(F)(F)F)c2)c(C)c1[N+](=O)[O-] | inactive: 23.1%
22 | Cc1c(NC(=S)NCc2ccc(F)cc2)cccc1[N+](=O)[O-] | inconclusive: -67.2%
23 | Oc1ccc(CN2CCN(c3ccccc3)CC2)c2cccnc12 | active: -100%

Given as tab-separated lines: five of the compounds above.
Row	SMILES	activity change (PNC), negative = inhibition
12	CCc1ccc2c(c1)C(c1cccs1)=NNC(c1cccnc1)=N2	inconclusive: -37.4%
14	Cc1cc(O)cc(O)c1C(=O)Cc1cscn1	inconclusive: -55.6%
16	CCCc1nn2c(=O)cc(O)nc2s1	inconclusive: -61.7%
19	O=C(C1CC1)N1CCc2cc(Br)cc(S(=O)(=O)NCc3ccc4c(c3)OCO4)c21	inactive: 3.78%
22	Cc1c(NC(=S)NCc2ccc(F)cc2)cccc1[N+](=O)[O-]	inconclusive: -67.2%

Next entries

Row | SMILES | activity change (PNC), negative = inhibition
24 | Cc1ccnc(NS(=O)(=O)c2cnc(Cl)c(Br)c2)c1 | inconclusive: -69.6%
25 | CCNc1nc(NC(C)C)nc(N(C#N)Cc2ccccc2)n1 | inconclusive: -53%
26 | COc1ccccc1CNC(=O)C1CCC1 | inactive: 47.1%
27 | CCOP(=O)(OCC)C(Nc1cccc(C(F)(F)F)c1)c1ccc(Br)cc1 (configuration not stated) | inactive: 26.4%
28 | Cc1cccc(-n2c(=O)[nH]c3c(C(N)=O)nc(-c4ccccc4Cl)nc32)c1 | inconclusive: -44.1%
29 | Cc1nc(-c2ccccc2)sc1-c1nc(-c2ccncc2)ncc1S(=O)(=O)c1ccccc1 | inactive: 57.6%
30 | O=C(CCS(=O)(=O)c1ccccc1)Nc1ccc(-c2nc3ccccc3s2)cc1 | inconclusive: -35.4%
31 | COC(=O)Cc1ccc(NC(=O)c2ccc(C)c(C)c2)cc1 | inconclusive: -38.7%
32 | Cc1nc(NCC2CCCO2)c2nnn(Cc3ccccc3)c2n1 (configuration not stated) | inactive: 15.3%
33 | COc1ccccc1NC(=O)NCCCl | inconclusive: -32.7%
34 | CCN(C(=O)CN1C=NS(=O)(=O)c2ccccc21)c1ccccc1 | inconclusive: -38.9%
35 | CCN1CCN(C(=O)CCc2ccc(S(=O)(=O)NCCc3ccccc3)cc2)CC1 | inconclusive: -40%
36 | O=C(O)Cc1ccc2sc(-c3ccccc3)nc2c1 | inconclusive: -56.2%
37 | CC(=O)Nc1nc(-c2ccccc2)ns1 | active: -100%
38 | COc1cc2c(cc1OC)CN(c1ccc([N+](=O)[O-])cc1C#N)CC2 | inconclusive: -64.7%
39 | CCN(CC)C(=O)c1cc2c(=O)n3cccc(C)c3nc2n1C | inconclusive: -39.3%
40 | COc1ccc(Br)cc1C1CC(=O)N2CN(Cc3ccccc3)CSC2=C1C#N (configuration not stated) | inactive: 31.1%
41 | COc1cccc(N2C(=O)CC(N3CCN(S(=O)(=O)c4ccccc4)CC3)C2=O)c1 (configuration not stated) | inactive: -19.9%
42 | OC(c1ccccc1)c1cccnc1 (configuration not stated) | inactive: -16.4%
43 | Cc1cc(C)c2c3c(sc2n1)C(c1ccccc1)C(C#N)=C(N)O3 (configuration not stated) | inconclusive: -53.4%
44 | Cc1cc(F)c(F)c(C(=O)N2CCN(C)CC2)c1Cl | inactive: -9.13%
45 | COc1ccc(CSc2nncn2C)cc1[N+](=O)[O-] | inactive: 26.7%
46 | CC12CCC(C(=O)NCc3ccc4c(c3)OCO4)(OC1=O)C2(C)C (configuration not stated) | inactive: 29.3%

Row | SMILES | activity change (PNC), negative = inhibition
47 | COc1ccc(OCC(=O)OCCN2C(=O)c3ccccc3C2=O)cc1 | inactive: 23%
48 | CCCCCOc1ccc(NC(=O)CSc2cccc3cccnc23)cc1 | inconclusive: -33.4%
49 | O=C(NCC(c1cccs1)N1CCOCC1)c1ccc(Cl)s1 (configuration not stated) | inconclusive: -79.4%
50 | O=C(NCc1ccccc1)c1ccc(Br)cc1Br | inactive: 82.8%
51 | Cc1cc(C)cc(OCc2ccc(C(=O)O)o2)c1 | inconclusive: -62.7%
52 | CCCCCCOc1ccc(N2C(=O)CC(N3CCC(C(=O)OCC)CC3)C2=O)cc1 (configuration not stated) | inconclusive: -76.8%
53 | Cn1c(=O)cc(SCC(=O)N2CCN(C(=O)c3ccco3)CC2)c2ccccc21 | inconclusive: -60.7%
54 | C(=N\n1cnnc1)/c1cccc2ccccc12 | inactive: 40.4%
55 | O=C(CCCc1nc(-c2ccccc2)no1)N1CCOCC1 | inactive: -4.94%
56 | COC(=O)c1c(-c2ccc(C)cc2)csc1NC(=S)NC(=O)c1cc(OC)cc(OC)c1 | inactive: -7.53%
57 | Cc1c(N)cccc1-c1nc2ccccc2[nH]1 | inactive: -15.4%
58 | Cc1cc(C)cc(NC(=S)N2CCN(c3ccc(F)cc3)CC2)c1 | inconclusive: -51.3%
59 | Cc1ccc(-c2noc(CSc3nnnn3C3CCCCC3)n2)cc1 | inactive: -16.6%
60 | CCOC(=O)CSc1nnc(CNC(=O)c2ccc(OC)cc2)n1Cc1ccccc1 | inactive: 12.7%
61 | COc1cc(/C=C2\CC/C(=C\c3cc(OC)c(OC)c(OC)c3)C2=O)cc(OC)c1OC | inconclusive: -62.8%
62 | CSc1ccccc1-n1nnnc1SCC(=O)Nc1ccccc1C | inactive: -14%
63 | Cc1[nH]n(C(N)=S)c(=O)c1C(c1ccccc1)C(C#N)C#N (configuration not stated) | inactive: 24.2%
64 | CN(C)c1ccc(S(=O)(=O)NCC(=O)OCC(=O)Nc2cc(Cl)cc(Cl)c2)cc1[N+](=O)[O-] | inactive: 9.54%
65 | Cc1nn(-c2ccccc2)c(Cl)c1/C=N/Nc1ccc(S(=O)(=O)Nc2ccccc2C(=O)O)cc1[N+](=O)[O-] | inactive: 27.1%
66 | CC(C)Cn1c(SCc2nnc(-c3cccs3)o2)nc(O)cc1=O | inactive: 16.6%
67 | Cc1ccc(-c2nc3cc(Cl)ccc3o2)cc1 | inconclusive: -37.4%
68 | O=C(NCC(c1cccs1)N1CCOCC1)c1ccc([N+](=O)[O-])cc1 (configuration not stated) | inconclusive: -32.7%
69 | COCCn1c(Cc2ccccc2)nnc1SCc1ccc([N+](=O)[O-])cc1 | inactive: 0.278%

Row | SMILES | activity change (PNC), negative = inhibition
70 | O=C(CCCSc1nc2ccccc2[nH]1)Nc1ccccc1 | inconclusive: -73.2%
71 | CCCc1[nH]nc2c1C(c1cn[nH]c1-c1ccc(F)cc1)C(C#N)=C(N)O2 (configuration not stated) | inactive: -2.2%
72 | COc1ccc(Sc2nc3ccccc3n3c(C(F)(F)F)nnc23)cc1 | inactive: 13.4%
73 | CC(=O)Oc1cc2c(C(C)=O)coc2c2ccccc12 | inconclusive: -69.3%
74 | O=P(OC1CCCCC1)(OC1CCCCC1)C(O)c1ccc(Cl)cc1Cl (configuration not stated) | inconclusive: -38.8%
75 | O=C(N/N=C1\CCCc2ccccc21)c1cccc([N+](=O)[O-])c1 | inconclusive: -41.6%
76 | Cc1cccc(N2C(=O)C3C4CC(C(Br)C4Br)C3C2=O)n1 (configuration not stated) | inconclusive: -39.1%
77 | Cc1ccc(C(=O)NC(=S)Nc2cccc(-c3nc4ccccc4s3)c2)cc1 | active: -112%
78 | CN(C)S(=O)(=O)N1CCN(CC(O)COc2ccc(C(=O)c3ccccc3)cc2)CC1 (configuration not stated) | inconclusive: -44.5%
79 | COc1ccc(-c2nnc(SCc3ccccc3)n2N)cc1 | active: -108%
80 | Cc1ccc(/C=C(\CCC(=O)O)c2nc3ccccc3s2)cc1[N+](=O)[O-] | inconclusive: -51.2%
81 | CCc1ccc(-c2cc(C(F)(F)F)n3nc(C(=O)Nc4cnn(Cc5ccc(C)cc5)c4)cc3n2)s1 | inconclusive: -40.9%
82 | CC(NC(=O)c1ccc(F)cc1)c1ccc(F)cc1 (configuration not stated) | inactive: 23.9%
83 | CCn1nnc(NC(=O)c2cccnc2)n1 | inactive: 24%
84 | Cc1ccsc1/C=N/NC(=O)c1cccs1 | inconclusive: -60.4%
85 | CCc1nnc(NC(=O)c2ccc(OC)cc2OC)s1 | inconclusive: -31.1%
86 | COc1ccc(NC(=O)CCCn2c(=O)c3sccc3n(Cc3ccc(C)cc3)c2=O)cc1 | inconclusive: -57.2%
87 | Cc1onc(-c2c(F)cccc2Cl)c1C(=O)NC(=S)NCc1cccnc1 | inconclusive: -71.4%
88 | COCCCNc1ncnc2nc[nH]c12 | inconclusive: -30.2%
89 | O=C(CN1C(=O)NC2(CCc3ccccc3C2)C1=O)Nc1ccc(F)cc1 (configuration not stated) | inconclusive: -30.2%
90 | CCCCCCc1c(O)c2ccccc2[nH]c1=O | inconclusive: -70.3%
91 | CCOc1ccc(C2NC(=O)c3ccccc3O2)cc1 (configuration not stated) | inactive: 7.19%
92 | Cc1ccc(Nc2cc(=O)oc3ccccc23)c(C)c1 | inactive: 143%
